# This is one part of the list.
# B1: CcfD (Bacteroides vulgatus), A6KYX8 (protein)
# chain: MKYKNYFKSIIYLALGAFTLGSCEDFLDRQEDEKLTFDKIWESRNTTQQYWLNAMSFLPNENGSLQGDTEPYLGASDECTIAYDRQYRWINFGTWNPSQVPYYKMDHYYKGIRECNIFLQNVYKCSDPLVTKDQLDEWYWQTRFARAYYYFLMMRDYGPVFLLGDDLLDFTASTEELYRPRNTWDQCVNYVVSEMTQCAESGVVLQQSDLPAAKWGLATVGTCHAVISRLLLYSARPLFNGNKLYSTVKNPDAPDFPELSGVKLFPELDNTKWQKAAEAAKKLIDNPCYELYRAGNDNPYEDYYGVTHETWNKELIWTDRYNGLFSWGVGTVPTGVAGTAYGAVGPTQALVDAYAMNTGWYPITGYEADGTPIVEPLSGYELASELEKSSWIYPSGGWSNKADFEIEAPNMYKDREPRFYVTVFFGGNQWLHGNSATSISFAKGGNGNKSHDYPKSGYLCNRFYDHKLNSSEGQWGNITFPVFRLGEIYLNFIEAVLECKKNGVALDPSYEALAMEKWADLRKRAGLDPITSIYGQVSTEELIQLCRKERQIELAFERHRYFDTRTWMIATQTDNGKMYGMNTSCPLDAGMKGTETPDGFWERTAFETRVFQNKHYLYPFSQRELDRNKLLTQNYGW
# Experiments:
# Assay in all cases: glycan array binding signal (z-score within array); higher = stronger binding
# Conditions in all cases: glycan notation: IUPAC condensed, linker removed
# [1] = molecular target: Neu5Ac(a2-3)Gal(b1-4)GlcNAc(b1-3)[Neu5Ac(a2-3)Gal(b1-4)GlcNAc(b1-6)]GalNAc
# In short: (§1)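 Columns mapping to the same glycan were averaged after glycan names were converted to IUPAC-condensed notation. The data come from 3228 arrays in the Consortium for Functional Glycomics database, limited to those with an available protein sequence. Binding is reported as a within-array Z-score averaged across arrays of one protein sequence and across linkers.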
# [2] = molecular target: Neu5Ac(a2-3)Gal(b1-4)GlcNAc(b1-6)GalNAc
# In short: as §1
# [3] = molecular target: Neu5Ac(a2-3)Gal(b1-4)GlcNAc(b1-6)[Gal(b1-3)]GalNAc
# In short: as §1
# [4] = molecular target: Neu5Ac(a2-3)Gal(b1-4)GlcNAc(b1-6)[Neu5Ac(a2-3)Gal(b1-3)]GalNAc
# In short: as §1
# [5] = molecular target: Neu5Ac(a2-3)Gal(b1-4)GlcNAc6S
# In short: as §1
# [6] = molecular target: Neu5Ac(a2-3)Gal(b1-4)[Fuc(a1-3)]GlcNAc
# In short: as §1
# [7] = molecular target: Neu5Ac(a2-3)Gal(b1-4)[Fuc(a1-3)]GlcNAc(b1-2)Man
# In short: as §1
# [8] = molecular target: Neu5Ac(a2-3)Gal(b1-4)[Fuc(a1-3)]GlcNAc(b1-3)Gal
# In short: as §1
# [9] = molecular target: Neu5Ac(a2-3)Gal(b1-4)[Fuc(a1-3)]GlcNAc(b1-3)Gal(b1-4)GlcNAc
# In short: as §1
# [10] = molecular target: Neu5Ac(a2-3)Gal(b1-4)[Fuc(a1-3)]GlcNAc(b1-3)Gal(b1-4)[Fuc(a1-3)]GlcNAc(b1-3)Gal(b1-4)[Fuc(a1-3)]GlcNAc
# In short: as §1
# [11] = molecular target: Neu5Ac(a2-3)Gal(b1-4)[Fuc(a1-3)]GlcNAc(b1-3)GalNAc
# In short: as §1
# [12] = molecular target: Neu5Ac(a2-3)Gal(b1-4)[Fuc(a1-3)]GlcNAc(b1-6)[Gal(b1-3)]GalNAc
# In short: as §1
# [13] = molecular target: Neu5Ac(a2-3)Gal(b1-4)[Fuc(a1-3)]GlcNAc(b1-6)[Neu5Ac(a2-3)Gal(b1-3)]GalNAc
# In short: as §1
# [14] = molecular target: Neu5Ac(a2-3)Gal(b1-4)[Fuc(a1-3)]GlcNAc6S
# In short: as §1
# [15] = molecular target: Neu5Ac(a2-3)Gal6S(b1-4)GlcNAc
# In short: as §1
# [16] = molecular target: Neu5Ac(a2-3)Gal6S(b1-4)[Fuc(a1-3)]GlcNAc
# In short: as §1
# Neu5Ac(a2-3)GalNAc = molecular target: Neu5Ac(a2-3)GalNAc
# In short: as §1
# [17] = molecular target: Neu5Ac(a2-3)GalNAc(b1-4)GlcNAc
# In short: as §1
# [18] = molecular target: Neu5Ac(a2-3)[GalNAc(b1-4)]Gal(b1-4)Glc
# In short: as §1
# [19] = molecular target: Neu5Ac(a2-3)[GalNAc(b1-4)]Gal(b1-4)GlcNAc
# In short: as §1
# [20] = molecular target: Neu5Ac(a2-3)[GalNAc(b1-4)]Gal(b1-4)GlcNAc(b1-3)GalNAc
# In short: as §1
# [21] = molecular target: Neu5Ac(a2-3)[Neu5Ac(a2-6)]GalNAc
# In short: as §1
# Neu5Ac(a2-6)Gal = molecular target: Neu5Ac(a2-6)Gal
# In short: as §1
# [22] = molecular target: Neu5Ac(a2-6)Gal(b1-3)GlcNAc(b1-3)[Gal(b1-4)GlcNAc(b1-6)]Gal(b1-4)Glc
# In short: as §1
# Neu5Ac(a2-6)Gal(b1-4)Glc = molecular target: Neu5Ac(a2-6)Gal(b1-4)Glc
# In short: as §1
# [23] = molecular target: Neu5Ac(a2-6)Gal(b1-4)GlcNAc
# In short: as §1
# [24] = molecular target: Neu5Ac(a2-6)Gal(b1-4)GlcNAc(b1-2)Man
# In short: as §1
# [25] = molecular target: Neu5Ac(a2-6)Gal(b1-4)GlcNAc(b1-2)Man(a1-3)Man(b1-4)GlcNAc(b1-4)GlcNAc
# In short: as §1
# [26] = molecular target: Neu5Ac(a2-6)Gal(b1-4)GlcNAc(b1-2)Man(a1-3)[Gal(b1-4)GlcNAc(b1-2)Man(a1-6)]Man(b1-4)GlcNAc(b1-4)GlcNAc
# In short: as §1
# [27] = molecular target: Neu5Ac(a2-6)Gal(b1-4)GlcNAc(b1-2)Man(a1-3)[GlcNAc(b1-4)][Neu5Ac(a2-6)Gal(b1-4)GlcNAc(b1-2)Man(a1-6)]Man(b1-4)GlcNAc(b1-4)GlcNAc
# In short: as §1
binder,measurement,setting,value
B1,glycan array binding signal (z-score),[1],0.689
same,glycan array binding signal (z-score),[2],0.897
same,glycan array binding signal (z-score),[3],1.43
same,glycan array binding signal (z-score),[4],5
same,glycan array binding signal (z-score),[5],-0.495
same,glycan array binding signal (z-score),[6],-0.083
same,glycan array binding signal (z-score),[7],-0.739
same,glycan array binding signal (z-score),[8],-0.851
same,glycan array binding signal (z-score),[9],-0.637
same,glycan array binding signal (z-score),[10],-1.21
same,glycan array binding signal (z-score),[11],-0.078
same,glycan array binding signal (z-score),[12],-0.312
same,glycan array binding signal (z-score),[13],-0.053
same,glycan array binding signal (z-score),[14],0.166
same,glycan array binding signal (z-score),[15],0.226
same,glycan array binding signal (z-score),[16],-0.942
same,glycan array binding signal (z-score),Neu5Ac(a2-3)GalNAc,-0.317
same,glycan array binding signal (z-score),[17],-0.307
same,glycan array binding signal (z-score),[18],0.592
same,glycan array binding signal (z-score),[19],1.18
same,glycan array binding signal (z-score),[20],1.96
same,glycan array binding signal (z-score),[21],-0.571
same,glycan array binding signal (z-score),Neu5Ac(a2-6)Gal,-0.683
same,glycan array binding signal (z-score),[22],-0.307
same,glycan array binding signal (z-score),Neu5Ac(a2-6)Gal(b1-4)Glc,-0.592
same,glycan array binding signal (z-score),[23],-0.287
same,glycan array binding signal (z-score),[24],-0.327
same,glycan array binding signal (z-score),[25],2.02
same,glycan array binding signal (z-score),[26],-0.708
same,glycan array binding signal (z-score),[27],-0.114

# Another view of part of the listing above:
binder	measurement	setting	value
B1	glycan array binding signal (z-score)	[7]	-0.739
same	glycan array binding signal (z-score)	[14]	0.166

# Reference: the supplement of paper PMC8728848
